Experimental data published in publication PMC5775428, “Towards an experimental classification system for membrane active peptides” (Scientific Reports, 2018).

Key:
[1] = PCA2 and hierarchical clustering of DSC data; parameters: key: Cluster 1 is composed by molecules with no significant interaction with the evaluated model membranes; Cluster 2 peptides present no detectable interaction with DMPC LUVs but disturb the main phase transition of 2:1 DMPC:DMPG LUVs; Cluster 3: Clusters 3 and 4 are populated by IAPs and AMPs that alter the main phase transition DMPC and 2:1 DMPC:DMPG LUVs and present significant and broad antimicrobial activity; Cluster 4: Clusters 3 and 4 are populated by IAPs and AMPs that alter the main phase transition DMPC and 2:1 DMPC:DMPG LUVs and present significant and broad antimicrobial activity; Cluster 5: The peptide cluster 5 is composed solely of AMPs; conditions: cluster membership from HCA of first five principal components of PCA2 (DSC data)
[2] = parameters: method as in earlier work; conditions: CD [θ]222 nm, 2:1 DMPC:DMPG LUVs, 2012 dataset; cited from earlier work
[3] = parameters: method as in earlier work; conditions: CD [θ]222 nm, 2012 dataset; cited from earlier work
[4] = parameters: method as in earlier work; conditions: CD [θ]222 nm, DMPC LUVs, 2012 dataset; cited from earlier work
[5] = DSC of DMPC LUVs with peptide; conditions: 2016 dataset
[6] = Far-UV CD, percent helicity in buffer; format: physicochemical; conditions: CD [θ]222 nm, 40 μM peptide in buffer, method of Chen et al., 2016 dataset
[7] = DSC of 2:1 DMPC:DMPG LUVs with peptide
[8] = Far-UV CD, percent helicity with 2:1 DMPC:DMPG LUVs; format: physicochemical; conditions: CD [θ]222 nm, 40 μM peptide + 2:1 DMPC:DMPG LUVs, 2016 dataset
[9] = Far-UV CD, percent helicity with DMPC LUVs; format: physicochemical; conditions: CD [θ]222 nm, 40 μM peptide + DMPC LUVs, 2016 dataset
[10] = 2:1 DMPC:DMPG LUVs + 4 mol% peptide, 2016 dataset

Row | Sequence | Cluster [1] | % Helicity 0.01 peptide/(2:1 DMPC/DMPG) (mol/mol) [2] | % Helicity (Buffer) [3] | % Helicity 0.01 peptide/DMPC (mol/mol) [4] | also measured
1 | GKFHQIKKMFLSVGVKVTSLKRIQFGDF [A5LDU0(184-211)] | Cluster 2 | – | – | – | –
2 | AAAAAAAIKMLMDLVNERIMALNKKAKK [Q6TV81(25-52)] | Cluster 4 | 100.1% | 47.7% | 76.7% | –
3 | FVTNSKRLAEGIEKGVGNSILIKVN [Q8KG25(327-351)] | Cluster 1 | 16.9% | 18.8% | 14.9% | –
4 | FFGHIWHGARTLFRDVFA [Cs02, putative IAP, YP_740502.1 (463–480)] | Cluster 4 | – | – | – | Tm_broad_pc, transition temperature of broad component ([5]; 0.5 mM DMPC LUVs + 20 μM peptide (4 mol%), pH 7.4, P′β→Lα transition, non-two state fit): 23.78 °C; H_broad_pc, transition enthalpy of broad component ([5]; DMPC LUVs + 4 mol% peptide): 4605 kcal/mol; H_sharp_pc, transition enthalpy of sharp component ([5]; DMPC LUVs + 4 mol% peptide): 1040 kcal/mol; Hv_broad_pc, van´t Hoff transition enthalpy of broad component ([5]; DMPC LUVs + 4 mol% peptide): 75410 kcal/mol; Hv_sharp_pc, van´t Hoff transition enthalpy of sharp component ([5]; DMPC LUVs + 4 mol% peptide): 386100 kcal/mol; Tm_sharp_pc, transition temperature of sharp component ([5]; DMPC LUVs + 4 mol% peptide): 22.15 °C; % Helicity (Buffer) [6]: 4.3%; Tm_broad_pcpg, transition temperature of broad component ([7]; 0.5 mM 2:1 DMPC:DMPG LUVs + 20 μM peptide (4 mol%), pH 7.4, 2016 dataset): 26.00 °C; H_broad_pcpg, transition enthalpy of broad component [7, 10]: 2655 kcal/mol; H_sharp_pcpg, transition enthalpy of sharp component [7, 10]: 1205 kcal/mol; Hv_broad_pcpg, van´t Hoff transition enthalpy of broad component [7, 10]: 107000 kcal/mol; Hv_sharp_pcpg, van´t Hoff transition enthalpy of sharp component [7, 10]: 193300 kcal/mol; Tm_sharp_pcpg, transition temperature of sharp component [7, 10]: 21.49 °C; % Helicity 0.01 peptide/(2:1 DMPC/DMPG) (mol/mol) [8]: 52.9%; % Helicity 0.01 peptide/DMPC (mol/mol) [9]: 52.8%
5 | FKALRALRLEDLRIPTSYIK [A3KLW0(117-136)] | Cluster 3 | 8.7% | 10.0% | 9.0% | –
6 | KAGLQFPVGRIARFLK [B4FGE3(22-37)] | Cluster 2 | 6.2% | 4.5% | 3.2% | –
7 | LVQRFHAYLHKFREAFMNVGAAAAVEGTKAA [A4HW34(187-217)] | Cluster 3 | 32.0% | 6.0% | 17.5% | –

Where two headings read alike, the source gives them in different places.
